{
  "source": "patent US10005824B2",
  "about": "“Selective PYY compounds and uses thereof” (Novo Nordisk A/S, priority 2015, dated 2018)",
  "key": {"db/db mice [1]": {"test_system": "db/db mice", "assay": "Pharmacodynamic study in db/db mice: blood glucose", "assay_type": "in vivo", "conditions": "s.c., 10 nmol/kg, mean of vehicle adjusted % BG relative to pre-treatment"}, "db/db mice [2]": {"test_system": "db/db mice", "assay": "Pharmacodynamic study in db/db mice: food intake", "assay_type": "in vivo", "conditions": "s.c., 10 nmol/kg, percentage of average food intake of the vehicle group"}},
  "note": "At least one compound was matched to its structure with a doubt left.",
  "data": [
    {"smiles": "CC(C)CC(=O)N[C@@H](CCCNC(=N)N)C(=O)N1CCC[C@H]1C(=O)N[C@@H](CCC(=O)O)C(=O)N[C@@H](C)C(=O)N1CCC[C@H]1C(=O)N1CCC[C@H]1C(=O)N[C@@H](CCCCNC(=O)CC[C@H](NC(=O)COCCOCCNC(=O)CC[C@H](NC(=O)CCCCCCCCCCCCCCCS(=O)(=O)O)C(=O)O)C(=O)O)C(=O)N[C@@H](CC(=O)O)C(=O)N[C@@H](C)C(=O)N[C@@H](CO)C(=O)N1CCC[C@H]1C(=O)N[C@@H](CCC(=O)O)C(=O)N[C@@H](CCC(=O)O)C(=O)N[C@@H](CC(C)C)C(=O)N[C@@H](CCC(N)=O)C(=O)N[C@@H](CCCNC(=N)N)C(=O)N[C@@H](Cc1ccc(O)cc1)C(=O)N[C@@H](Cc1ccc(O)cc1)C(=O)N[C@@H](C)C(=O)N[C@@H](CO)C(=O)N[C@@H](CC(C)C)C(=O)N[C@@H](CCCNC(=N)N)C(=O)N[C@@H](Cc1c[nH]cn1)C(=O)N[C@@H](Cc1ccc(O)cc1)C(=O)N[C@@H](Cc1ccc(O)cc1)C(=O)N[C@@H](CC(N)=O)C(=O)N[C@@H](Cc1c[nH]c2ccccc12)C(=O)N[C@@H](CC(C)C)C(=O)N[C@H](C(=O)N[C@@H](CCCNC(=N)N)C(=O)N[C@@H](CCC(N)=O)C(=O)N[C@@H](CCCNC(=N)N)C(=O)N[C@@H](Cc1ccc(O)cc1)C(N)=O)[C@@H](C)O", "note": "[Compound 69, N{alpha-4}-(3-Methylbutanoyl)-N{Epsilon-10}-[(4S)-4-carboxy-4-[[2-[2-[2-[[(4S)-4-carboxy-4-(16-sulfohexadecanoylamino)butanoyl]amino]ethoxy]-ethoxy]acetyl]amino]butanoyl]-[Arg4,Pro9,Lys10,Gln18,Tyr28,Trp30,Leu31]-PYY-(4-36)]", "values": [
      {"measurement": "% relative change in blood glucose", "setting": "db/db mice [1]; 0-24 h", "value": 84, "unit": "%"},
      {"measurement": "% relative change in blood glucose", "setting": "db/db mice [1]; 24-40 h", "value": 79, "unit": "%"},
      {"measurement": "% relative food intake", "setting": "db/db mice [2]; 0-24 h", "value": 61, "unit": "%"},
      {"measurement": "% relative food intake", "setting": "db/db mice [2]; 24-40 h", "value": 62, "unit": "%"}
    ]}
  ]
}
